Results reported in PubChem BioAssay AID1671190 (National Center for Advancing Translational Sciences (NCATS), 2021).
Screen size: about 580,000 compounds; about 6,100 (1.1%) were called active. This list was built around the results that the source calls inconclusive (neither active nor inactive); the mix of calls is not that of the screen. The call rests on the fitted dose curve; in most records, active means well fitted inhibition curve with a large enough effect; inconclusive means small, poorly fitted or top-dose-only effect, or another doubt; inactive means no such curve, though single readings can be large or run the other way. A potency beside an inconclusive call is a rough fit, not a confirmed value.
On the % scale 0 is the no-effect control and ±100 the full control effect; potency means the concentration at half of the fitted maximal effect.

Sequences of proteins named here, by UniProt entry; tags and fusion partners are left off. A change or cut given only in a name is not applied to a line headed by its entry.
UniProt P18054: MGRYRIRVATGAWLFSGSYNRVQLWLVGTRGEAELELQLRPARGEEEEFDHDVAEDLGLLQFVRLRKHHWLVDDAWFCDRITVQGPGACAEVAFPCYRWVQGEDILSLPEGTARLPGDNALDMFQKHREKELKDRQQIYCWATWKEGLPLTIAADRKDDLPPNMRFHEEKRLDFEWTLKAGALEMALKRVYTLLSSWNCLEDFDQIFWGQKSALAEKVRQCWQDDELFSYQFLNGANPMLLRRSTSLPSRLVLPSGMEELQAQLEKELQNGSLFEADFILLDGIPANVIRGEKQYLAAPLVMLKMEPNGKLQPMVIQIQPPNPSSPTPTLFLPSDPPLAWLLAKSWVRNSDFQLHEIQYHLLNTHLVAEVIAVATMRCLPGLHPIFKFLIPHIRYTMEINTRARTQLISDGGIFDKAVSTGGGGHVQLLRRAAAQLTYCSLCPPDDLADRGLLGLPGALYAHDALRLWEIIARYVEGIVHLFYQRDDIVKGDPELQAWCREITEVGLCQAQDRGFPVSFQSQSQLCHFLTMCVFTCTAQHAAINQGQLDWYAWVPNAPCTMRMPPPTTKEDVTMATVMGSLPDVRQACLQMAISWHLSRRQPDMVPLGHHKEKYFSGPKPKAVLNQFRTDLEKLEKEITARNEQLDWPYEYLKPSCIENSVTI

Each compound was assayed against Polyunsaturated fatty acid lipoxygenase ALOX12 (Homo sapiens) (UniProt P18054) (assay: Primary qHTS assay for inhibitors of human arachidonate 12S-lipoxygenase (ALOX12): Round 2). Details: purified 12hLO, xylenol orange hydroperoxide absorbance; activity change, negative = inhibition: at 108 µM (top of the series) unless noted.
How it was run: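 Hydroperoxide product was detected by ferrous iron/xylenol orange as the 573 to 405 nm absorbance ratio. Arachidonic acid at 40 uM (final) was turned over for 30 min at room temperature by 150 nM human 12hLO, pH 7.0 Hepes buffer, after 15 min compound preincubation.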
In the case of `CC1COCCN1C(=O)Cn1cnc2sccc2c1=O` (stereo not given), the Potency is reported as inconclusive: 6.31 µM [inhibitor, full curve, poor fit].
`COc1ccc(C(=O)NCC(=O)OCc2cc(=O)n3nc(C4CCCCC4)sc3n2)cc1` was tested, and the Potency was inconclusive: 141 µM [inhibitor, partial curve, poor fit].
In the case of `CCSc1nnc(NC(=O)c2cc(C)oc2C)s1`, the Potency is reported as inconclusive: 0.447 µM [inhibitor, full curve, poor fit].
With `NC(=S)N=Nc1c(O)n(Cc2ccccc2)c2ccccc12` the “activity change, negative = inhibition” value was inactive: 14.5%.
In the case of `O=C(Cn1cnc2ccccc2c1=O)Nc1ccc2oc(C3CC3)nc2c1`, the “activity change, negative = inhibition” value is reported as inactive: -22.9%.
`C[C@]1(CO)C2CC[C@@H](O)[C@@H](CC(=O)N3CCC[C@H]3CO)[C@]2(C)CC[C@H]1OC(=O)Nc1ccc(Cl)c(Cl)c1` (stereo not given in full) was tested, and the Potency was inconclusive: 89.1 µM [inhibitor, partial curve, poor fit].
In the case of `CC(C)[C@H](NC(=O)Cc1ccccc1)C(=O)OCc1cc(=O)n2c(n1)sc1ccccc12`, the Potency is reported as inconclusive: 1.26 µM [inhibitor, full curve, poor fit].
`CCOC(=O)c1ccccc1OC(=O)CS(=O)c1ccccc1[N+](=O)[O-]` (stereo not given) was tested, and the Potency was inconclusive: 70.8 µM [inhibitor, partial curve, poor fit].
With `Cc1ccccc1NC(=O)CC1C(=O)Nc2nc(-c3ccccc3)nn21` (stereo not given) the “activity change, negative = inhibition” value was inactive: 12.7%.
`COc1ccc(NC(=O)CSc2nncn3c2cc2occc23)c(OC)c1` was tested, and the Potency was inconclusive: 7.94 µM [inhibitor, partial curve, poor fit].
For `CCCCCn1c(SCCN2CCOCC2)nc2c1c(=O)[nH]c(=O)n2C`, the Potency was “inactive”.
With `COc1ccc2[nH]c(C(=O)Nc3ccc4c(c3)OCO4)cc2c1` the Potency was inconclusive: 79.4 µM [inhibitor, partial curve, poor fit].
`O=C1C(Nc2ccc3c(c2)OCCO3)=CC(c2ccccc2)N1c1ccc2c(c1)OCCO2` (stereo not given) was tested, and the Potency was inconclusive: 10 µM [inhibitor, full curve, poor fit].
`COc1ccc(C(=O)Nc2nnc(CCc3ccccc3)s2)c(OC)c1` was tested, and the Potency was inconclusive: 79.4 µM [inhibitor, partial curve, poor fit].
With `CCC(C)(C)n1nnnc1C(c1cc2cccc(C)c2[nH]c1=O)N1CCCC1` (stereo not given) the “activity change, negative = inhibition” value was inactive: 5.98%.
With `CCOC(=O)c1c(/N=C/c2cccc([N+](=O)[O-])c2O)sc(C)c1C` the Potency was inconclusive: 44.7 µM [inhibitor, partial curve, poor fit].
In the case of `Cn1cc(C(=O)NC2CCN(Cc3nnc(C(C)(C)C)o3)CC2)cn1`, the “activity change, negative = inhibition” value is reported as inactive: 22.4%.
In the case of `O=C(Nc1ccc(F)cc1)C1CC(=O)N(c2n[nH]c3cccc(F)c23)C1` (stereo not given), the “activity change, negative = inhibition” value is reported as inactive: 33.6%.
With `Cc1nc(NC(=O)/C=C/c2ccco2)sc1C` the “activity change, negative = inhibition” value was inactive: -14.1%.
`CN(Cc1ccccc1)CC1CCCN(CCc2ccccc2F)C1` (stereo not given) was tested, and the “activity change, negative = inhibition” value was inactive: -14.5%.
In the case of `CCC(C)NCCOCCOc1ccc(F)cc1` (stereo not given), the Potency is reported as inconclusive: 17.8 µM [inhibitor, full curve, poor fit].
With `O=C(Cn1c(=O)n(Cc2ccco2)c(=O)c2ccccc21)Nc1cccc(F)c1` the Potency was inconclusive: 89.1 µM [inhibitor, partial curve, poor fit].
With `CCCNC(=O)C1CCN(C(=O)c2ccc(C(F)(F)F)cc2)CC1` the “activity change, negative = inhibition” value was inactive: 3.98%.
For `C[S+](=O)([O-])N1Cc2ccccc2CC2(CCN(Cc3cccnc3)C2)C1` (stereo not given), the Potency was inconclusive: 31.6 µM [inhibitor, full curve, poor fit].
With `COc1ccc(Nc2cc(C(=O)NCCCOC(C)C)c3ccccc3n2)c(OC)c1` the “activity change, negative = inhibition” value was inactive: -6.9%.
`Cc1ccccc1C(O)c1nnc(Nc2ccc(Oc3ccccc3)cc2)s1` (stereo not given) was tested, and the Potency was inconclusive: 141 µM [inhibitor, partial curve, poor fit].
`COC(=O)C(NNc1ccccc1C)(NC(=O)c1ccc(F)cc1)C(F)(F)F` (stereo not given) was tested, and the Potency was inconclusive: 0.562 µM [inhibitor, partial curve, poor fit].
For `Cc1ccc(-n2c(-c3ccc(Br)cc3)nc3c(cnn3-c3ccccc3)c2=O)cc1`, the Potency was inconclusive: 56.2 µM [inhibitor, partial curve, poor fit].
With `COc1ccc(CCNc2cc(C)[nH]c(=O)c2)cc1OC` the Potency was inconclusive: 50.1 µM [inhibitor, single point].
`O=C(Nc1cc(F)cc(F)c1)c1ccc(NCCc2ccccc2)c([N+](=O)[O-])c1` was tested, and the “activity change, negative = inhibition” value was inactive: -20.5%.
For `CC(C)CCNc1nc(-c2ccc(O)c(C(N)=O)c2)cs1`, the Potency was active: 7.94 µM.
With `COc1cc2c(cc1OC)C(c1ccc3c(c1)OCO3)CC(=O)N2` (stereo not given) the “activity change, negative = inhibition” value was inactive: -12.9%.
`CCOc1cc2c3c(c1)C(C)CC(C)(C)N3C(=O)C2=O` (stereo not given) was tested, and the “activity change, negative = inhibition” value was inactive: -12.6%.
In the case of `CC(C)(C)c1cc(/C=C/C(=O)O)cc(C(C)(C)C)c1O`, the Potency is reported as active: 8.91 µM.
`CCOC(=O)c1cccn1C1C(=O)N(Cc2ccc(C(C)C)cc2)c2ccc(Cl)cc21` (stereo not given) was tested, and the Potency was inconclusive: 44.7 µM [inhibitor, partial curve, poor fit].
